These results are taken from paper PMC7819943, “Rice protein-binding microarrays: a tool to detect cis-acting elements near promoter regions in rice”.

This is one part of the list.

The target of the test is T1, OsSMF1 (Oryza sativa, UniProt Q6ZLB0 1-436).
T1 sequence: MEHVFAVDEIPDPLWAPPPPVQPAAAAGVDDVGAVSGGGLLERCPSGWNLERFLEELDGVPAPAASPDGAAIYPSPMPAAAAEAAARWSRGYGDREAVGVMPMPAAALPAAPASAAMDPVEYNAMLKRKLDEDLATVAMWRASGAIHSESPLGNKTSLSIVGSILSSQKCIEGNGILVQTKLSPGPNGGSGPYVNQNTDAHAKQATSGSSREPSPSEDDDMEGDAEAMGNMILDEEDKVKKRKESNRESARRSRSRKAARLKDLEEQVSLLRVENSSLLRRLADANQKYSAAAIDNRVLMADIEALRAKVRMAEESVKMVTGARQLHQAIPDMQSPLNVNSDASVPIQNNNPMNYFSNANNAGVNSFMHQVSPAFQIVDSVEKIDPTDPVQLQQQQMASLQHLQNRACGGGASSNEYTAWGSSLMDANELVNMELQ
Put plainly: protein-binding microarray (RPBM); PBS, 2% BSA, 51.3 ng/ul salmon testes DNA, 50 uM zinc acetate, 200 nM TF, 25 C, 1 h; high values mean tight binding. As to conditions: protein: recombinant; tags: N-terminal polyhistidine and DsRed monomer fusion (pET32a); chain copies: 2; label: CyDye5-dUTP incorporated in the synthesized complementary strand; 3' TTTTT single-stranded linker to array surface; dsDNA, one strand shown. An outline of the steps: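 For the binding signal, per-feature fluorescence intensity was read in arbitrary units on an Axon 4000B scanner. Before scanning, a 2% BSA-blocked custom Agilent array made double-stranded with Cy5-dUTP was washed after 1 h at 25 °C with 200 nM protein and 50 µM zinc acetate. The proteins were Ni–NTA-purified transcription factors with N-terminal polyhistidine and DsRed fusions, expressed in E. coli BL21-CodonPlus.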
On to “CCCACACCACCACACGCGTCGCGCGTGACTGCAAGCGGATCGGAGTCACCTAGTGCAG”, for which the binding signal was 3820 fluorescence intensity (a.u.). As for “ATATGCCGAGATGGCTCCATGATTTGTGTAATAAGTATTTCGGAGTCACCTAGTGCAG”, the figure is 3230 fluorescence intensity (a.u.). Take “AAGAAAGAACATGGAGAAAAGGATGGGAAGAGAGAAGAAACGGAGTCACCTAGTGCAG”: the binding signal is 3560 fluorescence intensity (a.u.). “TGCAAATGGTGTTGCAGAGAAGCTGACACAATATGGTATACGGAGTCACCTAGTGCAG”: the binding signal is 3240 fluorescence intensity (a.u.). As for “TCTCTATAATTAAACATTCCAATTTCGAAAATGTTGTTAGCGGAGTCACCTAGTGCAG”, the binding signal was 14300 fluorescence intensity (a.u.).

On to “GTTTCTAAAAGTAGTTTGAACACACGTATTCCCAAAATATCGGAGTCACCTAGTGCAG”, for which the binding signal was 3250 fluorescence intensity (a.u.). In the case of “TTATATCTTTTCTTATTAAGCCACATCATCTAAATTGTTTCGGAGTCACCTAGTGCAG” it was 8210 fluorescence intensity (a.u.).

As to “AGTTAATCCGTGTTCTTGGGTGACGAATTAACTGACGACCCGGAGTCACCTAGTGCAG”, the binding signal was 3140 fluorescence intensity (a.u.). Consider “ACAGCACCACAGAGCTCAGCTCCTCACGTCTGATCAGACACGGAGTCACCTAGTGCAG”, for which the binding signal is 3640 fluorescence intensity (a.u.). As for “GAGTTGAGAGAGAAGAGGCAGTGTCATATTGGTTCCACATCGGAGTCACCTAGTGCAG”, the figure is 3400 fluorescence intensity (a.u.); as for “GATCTATGCTTCGATCTGCATGTTCCAAGTCATGGTGAAGCGGAGTCACCTAGTGCAG”, 4230 fluorescence intensity (a.u.). “CTGATGATGAGAAATACCACCAATTTGAGAGGGATTTATGCGGAGTCACCTAGTGCAG”: the binding signal is 3330 fluorescence intensity (a.u.). In the case of “TCCATTTATCCGCTTCCGCCTCCCCTCTCTCCCTGATGCACGGAGTCACCTAGTGCAG” it was 31900 fluorescence intensity (a.u.); in that of “GTGACTATGGTCAACGCCAACTAGGCTTGGACAATGAAAGCGGAGTCACCTAGTGCAG”, 3360 fluorescence intensity (a.u.). Take “CACGTCGATCCCACATGCTGACTCATCGAGTCGACCATGACGGAGTCACCTAGTGCAG”: the binding signal was 11900 fluorescence intensity (a.u.). In the case of “AAGTACTCTGCAACTGACTCAGCCACTGGGGCACCTGCATCGGAGTCACCTAGTGCAG” it was 7610 fluorescence intensity (a.u.); in that of “ACGCCGCGCGACGCGTGGCTACGACGTGTCGACACCCTAACGGAGTCACCTAGTGCAG”, 7510 fluorescence intensity (a.u.); in that of “GAGAATCATCACTACATTCCTTTGCTACCATGGATTATGTCGGAGTCACCTAGTGCAG”, 21500 fluorescence intensity (a.u.). Take “CGCGGATGGATGGCGTGGCGATGGCCGAGGATGGATCCGGCGGAGTCACCTAGTGCAG”: the binding signal was 5280 fluorescence intensity (a.u.). Consider “CAGGTGCGTTTCGGGCCCACGTGGCAGTGTGAGCCTGGCACGGAGTCACCTAGTGCAG”, for which the binding signal is 10800 fluorescence intensity (a.u.). “AACTAAGATCAAGAAATAATTAGCTACAGCAATTAGCAGGCGGAGTCACCTAGTGCAG”: the binding signal is 3690 fluorescence intensity (a.u.). Take “TGTCATGGAGGATTGCCGGAAGCCTGATGAGTCAGAACAACGGAGTCACCTAGTGCAG”: the binding signal was 3360 fluorescence intensity (a.u.).

Regarding “ATTTCTATGGGATTCGTCTAGAAAGCTACGATTCCTAGTTCGGAGTCACCTAGTGCAG”, the binding signal is 22300 fluorescence intensity (a.u.). For “CTCCTCTCCACCTCAGCTCCCTCCTCGTCGCCACCGTCGTCGGAGTCACCTAGTGCAG”, the binding signal was 7010 fluorescence intensity (a.u.). Regarding “ACTATCTGTGTTGTTGAGTTCTTGCGCGTGCGTGCGTCACCGGAGTCACCTAGTGCAG”, the binding signal is 7570 fluorescence intensity (a.u.). For the sequence “ATCCGCCCTACTACATCCGTGCACCATCTTTCCCTTTCAGCGGAGTCACCTAGTGCAG”, the binding signal was 3300 fluorescence intensity (a.u.). On to “GTGTGCTGTGTGTGGTCTGAGATGATGTGTACTGCTGCTACGGAGTCACCTAGTGCAG”, for which the binding signal is 3950 fluorescence intensity (a.u.). In the case of “TGGGGATGTGTTGTGGTGAGCTGGAAAGTGCAAACTGGTTCGGAGTCACCTAGTGCAG” it was 5530 fluorescence intensity (a.u.); in that of “ATATGTATATATGCGTACGTCTGATTCATCGTTCATCTCCCGGAGTCACCTAGTGCAG”, 5110 fluorescence intensity (a.u.); in that of “TCATCAAGCAAGAAGGCAGTACATCTTCTAAATGACGCAGCGGAGTCACCTAGTGCAG”, 4360 fluorescence intensity (a.u.). For the sequence “TCACATGCATCCCTGACACGTCAGTATTTCGTTCCATAGCCGGAGTCACCTAGTGCAG”, the binding signal is 25800 fluorescence intensity (a.u.). “AGATTGCCATCGGACGCAGTAAAACGTGTCACTACCCCACCGGAGTCACCTAGTGCAG”: the binding signal was 7590 fluorescence intensity (a.u.). On to “TGCTATTGAGTTGTCAGCTTCATCCATAAACAAACACCCCCGGAGTCACCTAGTGCAG”, for which the binding signal was 4440 fluorescence intensity (a.u.). “CCGCCCAACGGCTTCGCCACGCTGCTCCGGCCACCCCTCTCGGAGTCACCTAGTGCAG”: the binding signal is 3840 fluorescence intensity (a.u.).

Consider “CTGTGGTCTCGTGCACCGCTGACACCCTCCTGCCACGCCGCGGAGTCACCTAGTGCAG”, for which the binding signal was 4500 fluorescence intensity (a.u.). As for “GTGTGTGTGACAGTGCAAGGAGGCAGGCCACCCACTTGGCCGGAGTCACCTAGTGCAG”, the binding signal was 3980 fluorescence intensity (a.u.).

Take “AATAAGGCCCTATACGTGTTCCACGCCGGCACGCGGGTGTCGGAGTCACCTAGTGCAG”: the binding signal was 5530 fluorescence intensity (a.u.). On to “CGTCATTGGCGTAGCTAATGATTCCAAGTTTCCAACCCCTCGGAGTCACCTAGTGCAG”, for which the binding signal is 8780 fluorescence intensity (a.u.). For “GGAACTTCTGTTTAGGCATTTGCACCTGAAATATGATCTGCGGAGTCACCTAGTGCAG”, the binding signal is 3190 fluorescence intensity (a.u.). As for “GTCCTCAGGCTCCAGAGGCCGAGTCGGCCCACATAGGCCCCGGAGTCACCTAGTGCAG”, the binding signal is 27200 fluorescence intensity (a.u.).

Turning to “TATAAGTAACTTAAAGATTTGTGATGTGGATTTGGGATGTCGGAGTCACCTAGTGCAG”, the binding signal is 5400 fluorescence intensity (a.u.). In the case of “TTCTTCTCTGGTCTCCCCTGTGTGTTGCTGTTCTATTTCCCGGAGTCACCTAGTGCAG”, the binding signal is 16800 fluorescence intensity (a.u.).
